Earlier results, collected in patent US20060173067A1, “Small molecules for the treatment of atherosclerosis” (The Regents of the University of California, priority 2004, published 2006).

Test system: CHO—C-19 cells
Details: ApoA-I/Cells; cited from earlier work

For “ApoA-I: lipid-free human apoA-I, the main protein in HDL, molecular weight of 28,000 Daltons”, the Bilayer dimension is listed as 4.6 nm, the “Prominent Feature” value is listed as “Discoidal particles” and the “Size "Nascent HDL Particles"” value is listed as 7.3 nm. The “Spacing between discoidal particles/bilayers” value was 1.9 nm and the Vesicular structures was 34.7 nm.
